These are yes or no findings as the source states them, for the method shown. Some entries that bind do so weakly or less than the wild type.

Amino acid sequences for entries named in this document (tags omitted). Residues count along the entry.
UniProt P08581, residues 25-1390: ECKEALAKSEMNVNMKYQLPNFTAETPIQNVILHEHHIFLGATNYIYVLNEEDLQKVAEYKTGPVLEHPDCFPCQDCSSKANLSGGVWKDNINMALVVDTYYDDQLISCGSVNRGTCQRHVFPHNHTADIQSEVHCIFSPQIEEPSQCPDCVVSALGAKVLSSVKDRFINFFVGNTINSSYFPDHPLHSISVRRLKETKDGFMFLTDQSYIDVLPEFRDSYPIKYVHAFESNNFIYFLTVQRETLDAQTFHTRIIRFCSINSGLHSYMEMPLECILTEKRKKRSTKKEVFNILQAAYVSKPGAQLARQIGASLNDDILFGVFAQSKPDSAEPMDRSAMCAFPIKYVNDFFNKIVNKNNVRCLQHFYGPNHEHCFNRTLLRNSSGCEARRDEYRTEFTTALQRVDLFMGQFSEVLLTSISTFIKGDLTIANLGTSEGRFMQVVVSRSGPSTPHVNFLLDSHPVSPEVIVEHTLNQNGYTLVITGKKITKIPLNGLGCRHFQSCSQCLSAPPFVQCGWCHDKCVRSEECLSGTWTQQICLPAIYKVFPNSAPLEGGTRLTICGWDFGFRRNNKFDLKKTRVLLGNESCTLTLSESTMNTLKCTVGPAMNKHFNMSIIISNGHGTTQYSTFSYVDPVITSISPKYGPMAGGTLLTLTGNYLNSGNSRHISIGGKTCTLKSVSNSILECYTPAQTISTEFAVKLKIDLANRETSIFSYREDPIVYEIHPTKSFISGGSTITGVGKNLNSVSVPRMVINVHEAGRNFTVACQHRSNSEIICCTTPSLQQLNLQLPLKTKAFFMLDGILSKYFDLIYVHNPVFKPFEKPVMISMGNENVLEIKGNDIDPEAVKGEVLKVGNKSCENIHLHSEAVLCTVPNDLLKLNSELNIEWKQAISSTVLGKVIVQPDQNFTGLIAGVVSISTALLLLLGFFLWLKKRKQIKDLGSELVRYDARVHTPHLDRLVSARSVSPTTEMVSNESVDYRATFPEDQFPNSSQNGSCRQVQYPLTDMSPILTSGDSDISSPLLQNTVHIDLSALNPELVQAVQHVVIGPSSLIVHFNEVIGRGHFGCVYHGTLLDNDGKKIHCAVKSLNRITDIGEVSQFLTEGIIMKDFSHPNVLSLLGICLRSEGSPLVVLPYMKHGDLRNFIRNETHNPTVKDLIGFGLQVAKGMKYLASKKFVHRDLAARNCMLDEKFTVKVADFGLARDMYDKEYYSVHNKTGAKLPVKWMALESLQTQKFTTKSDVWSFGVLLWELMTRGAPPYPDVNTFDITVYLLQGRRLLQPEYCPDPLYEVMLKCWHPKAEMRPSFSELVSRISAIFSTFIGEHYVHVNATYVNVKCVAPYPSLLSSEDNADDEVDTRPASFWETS

This assay deals with MET receptor (a.k.a. hepatocyte growth factor receptor, expressed by gene c-MET) (UniProt P08581). Briefly: phage display biopanning; binding assay not described.
ASVHFPP [MET binding peptide ASVHFPP (SEQ ID NO: 121)]: the binding result was “binds”.

Take TATFWFQ [MET binding peptide TATFWFQ (SEQ ID NO: 122)]: the binding entry is on record as “binds”.

In the case of WPRLTNM [MET binding peptide WPRLTNM (SEQ ID NO: 125)], the binding entry is recorded as “binds”.

As for IPLKVHP [MET binding peptide IPLKVHP (SEQ ID NO: 124)], the binding result is listed as “binds”.

Regarding TSPVALL [MET binding peptide TSPVALL (SEQ ID NO: 123)], the binding result is recorded as “binds”.

The values above are taken from patent US20180028686A1 (priority 2014, published 2018).
